In PubChem BioAssay AID758 (NMMLSC, 2007):
Among all 190,000 compounds or so, about 110 (0.058%) were called active. Inconclusive results, whose numbers are uncertain, are shown with a selection of clear calls.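 The calls were made as follows: active = fluorescent GTP binding to Rab7 beads changed by at least 20 points from the 100% baseline, either direction, mostly lower; inconclusive = compound itself probably fluorescent, or too few beads counted; inactive = the rest.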

Test system: Rab7 GTPase wild type (dog), Bodipy-FL-GTP binding
Assay: modulators of GTP binding to Rab7, primary screen, biochemical, wildtype, multiplex bead flow cytometry (AID 758);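 also: median green fluorescence of bound Bodipy-FL-GTP per Rab7 bead population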
Details: GST-Rab7 beads, fluorescent GTP binding, at 10 µM, actives lie on both sides, untreated = 100%, excess cold GTP = 0%

Structure (SMILES)	GTP binding activity (percent of control)
COc1ccc(-c2cc(C#N)nc(N3CCN(C)CC3)n2)cc1	inactive: 98%
CN(CC(=O)O)S(=O)(=O)c1cccs1	inconclusive: 98%
CCC(C(=O)Nc1sc(C(N)=O)c(C)c1C(=O)OC)c1ccccc1 (stereo not drawn)	inconclusive: 89%
COc1cc(/C=C/C(=O)Nc2ccc3nc4n(c(=O)c3c2)CCCC4)cc(OC)c1OC	inconclusive: 83%
N#Cc1cccc(NC(=O)c2ccccc2C(=O)O)c1	inconclusive: 103%
CC(/C=N/NC(=O)c1cccs1)=C\c1ccco1	inconclusive: 88%
c1ccc(CNc2nc(-c3cccs3)nc3ccccc23)cc1	inconclusive: 103%
O=C(Nc1sc2c(c1-c1nc3ccccc3[nH]1)CCCC2)C1CC1	inconclusive: 102%
Cn1c(NCc2ccccc2)nc2c1c(=O)n(Cc1ccc(Br)cc1)c(=O)n2C	inactive: 102%
CCOc1cc(/C=C2/NC(=O)NC2=O)cc([N+](=O)[O-])c1O	inconclusive: 87%
O=C(CNC(=S)N(Cc1ccccc1)Cc1ccccc1F)NCc1ccc(Cl)cc1	inconclusive: 94%
C=CCNc1cnn(-c2ccccc2)c(=O)c1Cl	inactive: 98%
O=C(Oc1c(Br)cc(Br)c2cccnc12)N1CCCCC1	inconclusive: 92%
Cc1cccc2cc(C#N)c(NCCNC(=S)NCCCN3CCOCC3)nc12	inconclusive: 93%
O=C(NCCCNc1ccc(C(F)(F)F)cc1[N+](=O)[O-])c1ccc(Cl)cc1	inconclusive: 90%
O=C(NCC1CCCO1)C1CCCN1C(=O)Nc1ccc(Cl)cc1 (stereo not drawn)	inactive: 103%
CC1C(=O)CCCCCCCCCC2C1(N1CCOCC1)CS2(=O)=O (stereo not drawn)	inactive: 102%
O=c1c(-c2ccccc2)n[nH]c2ccccc12	inconclusive: 102%
CCCOP(=O)(OCCC)C(Nc1ccc(C(=O)O)cc1)c1ccccc1 (stereo not drawn)	inconclusive: 93%
CCCCN(C)C(=S)Nc1ccc(Oc2ccccc2)cc1	inactive: 103%
S=C(Nc1ccc(N2CCOCC2)cc1)Nc1ccc2snnc2c1	inactive: 95%
Cc1cc(C(=O)CN2C(=O)C(=O)N(Cc3ccccc3)C2=O)c(C)n1-c1ccccc1F	inconclusive: 91%
O=C(CN1CCC2(CC1)OCCO2)c1ccc2cc[nH]c2c1	inconclusive: 107%
Cc1noc(NS(=O)(=O)c2ccc(NC(=O)CSc3nnc4c(n3)[nH]c3ccccc34)cc2)c1C	inconclusive: 76%

Structure (SMILES)	GTP binding activity (percent of control)
COC(=O)COc1ccc(S(=O)(=O)NCc2ccco2)cc1	inconclusive: 102%
N#CC1=C(N)Oc2n[nH]c(-c3cccnc3)c2C1c1ccc([N+](=O)[O-])o1 (stereo not drawn)	inconclusive: 93%
CC(C)CC1NC(=O)N(CC(=O)Nc2ccc3c(c2)CCC3)C1=O (stereo not drawn)	inconclusive: 97%
CC(C)C(C(=O)NCC1CCCO1)N(Cc1ccco1)C(=O)CNS(=O)(=O)c1ccc(F)cc1 (stereo not drawn)	inconclusive: 102%
COc1cc(C2CC(=O)Oc3c2c(=O)n(C)c2ccccc32)ccc1O (stereo not drawn)	inconclusive: 94%
O=C(O)c1ccc(N2CCCCS2(=O)=O)cc1	inactive: 94%
O=C(COc1cccc(Br)c1)N/N=C1\CCSC1	inconclusive: 92%
NCc1ccccc1COc1ccccc1	inactive: 104%
Cc1cccc(C(=O)Nc2cccc(-c3ccc4nncn4n3)c2)c1	inconclusive: 94%
C/C(N)=C(/C#N)C(=O)COC(=O)CCCNC(=O)c1ccc(Cl)cc1	inactive: 105%
CC(C)(C)c1nn2cnnc2n(/N=C/c2ccc(O)cc2)c1=O	inconclusive: 103%
CCCCC(=O)NCCc1ccc(OC)cc1	inconclusive: 104%
CCn1cc(Br)c(C(=O)Nc2ccc(OC)cc2)n1	inconclusive: 98%
CCOc1ccccc1N(CC(=O)NC1CCCCC1)S(C)(=O)=O	inconclusive: 102%
COc1ccc(Cc2nnc(NS(=O)(=O)c3ccc(Cl)cc3)s2)cc1OC	inconclusive: 97%
Cc1ccc(NC(=S)Nc2ccc3cn[nH]c3c2)cc1C	inconclusive: 97%
Cc1ccc2nc(N3C(=O)C(O)=C(C(=O)c4ccco4)C3c3cccs3)sc2c1 (stereo not drawn)	inconclusive: 96%
OCCc1ccc(-c2ccc(Cl)cc2)o1	inconclusive: 103%
Cc1ccc(NC(=O)NC(=O)CSc2n[nH]c(N)n2)c(C)c1	inconclusive: 107%
Cc1ccc2c(c1)Oc1ccc([N+](=O)[O-])cc1C(=O)N2	inconclusive: 94%
CC(=O)NC1=NN(C(C)=O)C2(S1)C(=O)N(C(C)C)c1ccc(C)cc12 (stereo not drawn)	inconclusive: 103%
O=C(NCCc1c[nH]c2ccccc12)c1cccc(S(=O)(=O)Nc2ccccc2Cl)c1	inactive: 88%
CN(C(=O)COC(=O)c1cc(S(=O)(=O)N2CCOCC2)c(Cl)cc1Cl)C1CCS(=O)(=O)C1 (stereo not drawn)	inactive: 96%
Cc1ccc2nc(Nc3ccccc3)c(/C=N/O)c(=O)n2c1	inconclusive: 98%

Structure (SMILES)	GTP binding activity (percent of control)
C=CCN1C(=NC(=O)CCCC(=O)O)SC2CS(=O)(=O)CC21 (stereo not drawn)	active: 76%
O=C1c2ccccc2C(=O)N1c1cccnc1	inconclusive: 92%
O=C(Nc1nn[nH]n1)c1cc(-c2ccc(Cl)c(Cl)c2Cl)nc2ccccc12	inconclusive: 90%
CC(=O)Nc1ccc(SCC(=O)N(C)C2CCS(=O)(=O)C2)cc1 (stereo not drawn)	inactive: 98%
COc1cc(OC)cc(C(=O)Nc2ccc(S(=O)(=O)Nc3nc(C)cc(C)n3)cc2)c1	inconclusive: 96%
COc1ccc(CCNC(=O)c2cc(-c3ccc(Cl)c(Cl)c3)oc2C)cc1	inactive: 98%
CC(C)(C)SCCNC(=O)c1ccc(Cl)c([N+](=O)[O-])c1	inconclusive: 98%
O=C(c1cc(Br)ccc1Cl)N1CCCC1	inconclusive: 96%
COc1cc2[nH]c(=O)c(C(=O)NCCCN3CCCCC3)c(O)c2cc1OC	inconclusive: 102%
CCN1CCN(C(=S)NCC(C)C)CC1	inactive: 101%
COC(CNC(=O)c1cccnc1)OC	inconclusive: 94%
COC(=O)C(C)(C)ONC(=O)Nc1ccccc1	inactive: 99%
O=C(Oc1c(Br)cc(C(=S)N2CCOCC2)cc1Br)c1ccc(Cl)cc1	inactive: 88%
O=C(NC(=S)Nn1cnc2c(cnn2-c2ccccc2)c1=O)c1ccc(Oc2ccccc2)cc1	inconclusive: 92%
Cc1ccc(-n2ncc3c(SCc4cccc(C)c4)ncnc32)cc1	inconclusive: 97%
CCCCN1C(=O)C2C(c3ccc(OC)cc3O)NC(CC(C)C)(C(=O)O)C2C1=O (stereo not drawn)	inconclusive: 102%
CCCN(CCC)CCCNC(=O)CNC(=O)c1nn(-c2ccc(OC)cc2)c(=O)c2ccccc12	inactive: 95%
Cc1ccc(NS(=O)(=O)c2cc(C(=O)Nc3cccc(N(C)S(C)(=O)=O)c3)ccc2C)c(C)c1	inconclusive: 97%
CCCCCCn1c(-c2cccs2)n[nH]c1=S	inconclusive: 92%
COc1cc2c(cc1OC)CN(c1nc(-c3cccnc3)nc3ccccc13)CC2	inactive: 102%
O=c1[nH]c(CN2CCCC2)nc2sc3c(c12)CCC3	inconclusive: 182%
COc1ccc([N+](=O)[O-])cc1NC(=O)c1ccc(-n2nc(C)cc2C)cc1	inactive: 99%
CCOc1ccc(NC(=S)N2CCC(N(C)CCN3CCOCC3)CC2)cc1	inactive: 100%
O=C(Nc1ccccc1)Nc1cccc2cccnc12	inconclusive: 95%

For reference, part of the list above:
Structure (SMILES)	GTP binding activity (percent of control)
CN(C(=O)COC(=O)c1cc(S(=O)(=O)N2CCOCC2)c(Cl)cc1Cl)C1CCS(=O)(=O)C1 (stereo not drawn)	inactive: 96%
Cc1ccc2nc(Nc3ccccc3)c(/C=N/O)c(=O)n2c1	inconclusive: 98%
C=CCN1C(=NC(=O)CCCC(=O)O)SC2CS(=O)(=O)CC21 (stereo not drawn)	active: 76%
O=C1c2ccccc2C(=O)N1c1cccnc1	inconclusive: 92%
O=C(Nc1nn[nH]n1)c1cc(-c2ccc(Cl)c(Cl)c2Cl)nc2ccccc12	inconclusive: 90%
CC(=O)Nc1ccc(SCC(=O)N(C)C2CCS(=O)(=O)C2)cc1 (stereo not drawn)	inactive: 98%
COc1cc(OC)cc(C(=O)Nc2ccc(S(=O)(=O)Nc3nc(C)cc(C)n3)cc2)c1	inconclusive: 96%
COc1ccc(CCNC(=O)c2cc(-c3ccc(Cl)c(Cl)c3)oc2C)cc1	inactive: 98%
CC(C)(C)SCCNC(=O)c1ccc(Cl)c([N+](=O)[O-])c1	inconclusive: 98%
O=C(c1cc(Br)ccc1Cl)N1CCCC1	inconclusive: 96%
COc1cc2[nH]c(=O)c(C(=O)NCCCN3CCCCC3)c(O)c2cc1OC	inconclusive: 102%
CCN1CCN(C(=S)NCC(C)C)CC1	inactive: 101%
COC(CNC(=O)c1cccnc1)OC	inconclusive: 94%
COC(=O)C(C)(C)ONC(=O)Nc1ccccc1	inactive: 99%
O=C(Oc1c(Br)cc(C(=S)N2CCOCC2)cc1Br)c1ccc(Cl)cc1	inactive: 88%
O=C(NC(=S)Nn1cnc2c(cnn2-c2ccccc2)c1=O)c1ccc(Oc2ccccc2)cc1	inconclusive: 92%
Cc1ccc(-n2ncc3c(SCc4cccc(C)c4)ncnc32)cc1	inconclusive: 97%
CCCCN1C(=O)C2C(c3ccc(OC)cc3O)NC(CC(C)C)(C(=O)O)C2C1=O (stereo not drawn)	inconclusive: 102%
CCCN(CCC)CCCNC(=O)CNC(=O)c1nn(-c2ccc(OC)cc2)c(=O)c2ccccc12	inactive: 95%
Cc1ccc(NS(=O)(=O)c2cc(C(=O)Nc3cccc(N(C)S(C)(=O)=O)c3)ccc2C)c(C)c1	inconclusive: 97%
CCCCCCn1c(-c2cccs2)n[nH]c1=S	inconclusive: 92%
COc1cc2c(cc1OC)CN(c1nc(-c3cccnc3)nc3ccccc13)CC2	inactive: 102%
O=c1[nH]c(CN2CCCC2)nc2sc3c(c12)CCC3	inconclusive: 182%
COc1ccc([N+](=O)[O-])cc1NC(=O)c1ccc(-n2nc(C)cc2C)cc1	inactive: 99%
CCOc1ccc(NC(=S)N2CCC(N(C)CCN3CCOCC3)CC2)cc1	inactive: 100%
O=C(Nc1ccccc1)Nc1cccc2cccnc12	inconclusive: 95%

Additional entries

Structure (SMILES)	GTP binding activity (percent of control)
COc1ccc(-c2cc(=O)c3c(O)c(OC)c(O)cc3o2)cc1	inactive: 100%
COc1cc2c3nnc(-c4ccc(F)cc4)c-3cn(Cc3cccc(F)c3)c2cc1OC	inconclusive: 181%
Cc1cc(C)c(-c2cc(NC(=O)CSc3nncn3C)n(-c3ccccc3)n2)cc1C	inconclusive: 96%
Cc1ccc(-c2cc(C(=O)Nc3nn[nH]n3)c3ccccc3n2)c(C)c1	inconclusive: 96%
CCOC(=O)c1ccc2ncc(-c3ccccc3)nc2c1	inconclusive: 85%
O=C(NNC(=O)C1CCN(S(=O)(=O)c2cccc(C(F)(F)F)c2)CC1)C1CC1	inconclusive: 101%
O=C(O)c1cccnc1SCc1cccc(Cl)c1	active: 124% [activator]
Cc1ccc(S(=O)(=O)Nc2ccc3nc(-c4cccn4C)[nH]c3c2)cc1	inactive: 96%
Cc1nccn1CCCNC(=O)CC1C(=O)NCCN1Cc1ccc(Cl)c(F)c1 (stereo not drawn)	inconclusive: 92%
O=C(Nc1ccccc1F)c1ccccc1-c1ccccc1	active: 74%
COCCCN1C(=O)C(=O)/C(=C(/O)c2ccc(C)cc2)C1/C=C/c1ccccc1 (stereo not drawn)	inconclusive: 90%
O=C(NNC(=S)NC(=O)c1cccs1)c1ccc(NC(=O)c2ccccc2)cc1	inconclusive: 93%
COC(C(=O)NC1CC1)c1ccccc1 (stereo not drawn)	inconclusive: 96%
NC(=O)C1CCN(C(=O)COc2ccc(S(=O)(=O)NCc3ccccc3)cc2Cl)CC1	inconclusive: 98%
CC(=O)NCC(=O)N1CCCC(C(=O)c2ccc3c4c(cccc24)CC3)C1 (stereo not drawn)	inactive: 98%
O=C1/C(=C\c2ccc(-c3ccccc3[N+](=O)[O-])o2)C(c2ccccc2)=NN1c1ccccc1	inconclusive: 86%
CCCCCCCC(=O)NN1CCOCC1	inconclusive: 96%
NS(=O)(=O)c1cccc(NC(=O)COC(=O)/C=C/c2ccco2)c1	inactive: 94%
CCN(CC)S(=O)(=O)c1ccc(-c2nnc(SC)o2)cc1	inconclusive: 101%
Cc1nn(-c2ccccc2)c(Oc2ccccc2)c1C=O	inactive: 104%
COc1ccc(N(CC(=O)Nc2ccccc2C(N)=O)S(=O)(=O)c2ccc(C)c([N+](=O)[O-])c2)cc1	inactive: 95%
